Literature values, collected in US20040229241A1, “Cloned mammalian polyamine oxidase” (priority 2001, published 2004).
Some of these results come from one statement about several compounds together. At least one compound was matched to its structure with a doubt left.

Tested on: non-small-cell lung cancer lines
Conditions: 96 h exposure; cited from earlier work

Row | SMILES | concentrations that are cytotoxic [nM]
1 | CCNCCCNCCCNCCCNCC [BENSpm, N^1,N^11-bis(ethyl)norspermine] | > 1000
2 | CCNCCCNCCCNCCCNCC1CC1 [CPENSpm, N^1-ethyl-N^11-(cyclopropyl) methyl-4,8,diazaundecane] | > 1000
